From US20130344008A1, “NONCARIOUS MATERIAL AND ANTICARIOUS AGENT CONTAINING RARE SUGAR” (priority 2006, published 2013)
Some entries share one result that the patent states for a list of compounds.

Test system: S. mutans strain MT 8148 (JCM5175)
Assay: Example 2: bacterial growth (OD 660 nm) and pH of S. mutans culture in phenol red broth with 1% test substance
Assay type: cell-based, Streptococcus mutans
Details: absorbance at 660 nm, PRB broth, 37° C., 48 hours later
Experimental: D-Psicose and L-psicose were used to assay the actions thereof against S. mutans. D-Psicose and L-psicose were supplied from the Rare Sugar Research Center, the National University Corporation Kagawa University. The S. mutans strain MT 8148 (JCM5175) was plated in a Brain Heart Infusion broth supplemented with agar for culturing at 37° C. for 48 hours. The liquid culture was inoculated in a fresh Brain Heart Infusion broth, for culturing at 37° C. for 24 hours. The liquid culture was inoculated in a phenol red broth (PRB broth) containing a test substance at 1%, for culturing at 37° C.; the bacterial growth (absorbance at 660 nm: OD) and the pH were assayed 48 hours later. Asa control, glucose, fructose, sucrose and Xylitol were used. After culturing for a given period of time, additionally, the optical density of apart of the liquid culture was measured with an absorptiometer (OD 660 nm).

Compound | OD
O=C(CO)[C@H](O)[C@H](O)[C@H](O)CO [D-psicose] | ≤ 0.05
O=C(CO)[C@@H](O)[C@@H](O)[C@@H](O)CO [L-psicose] | ≤ 0.05
